Variants at the background level are over-represented here.
B1: tRNA (parent)
chain: GUUCCGUUGGCGUAAUGGUAACGCGUCUCCCUCCUAAGGAGAAGACUGCGGGUUCGAGUCCCGUACGGAACG

Variants of: B1
Experiment: yeast fitness relative to wild type (ratio to wild type); higher = fitter; tRNA-Arg(CCU), competitive growth, 37 C, YPD
Method in brief: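 Amplicons of the tRNA-Arg(CCU) gene were sequenced, 100-nucleotide paired-end, from the start population and from each end population of a pooled yeast competition. The competition, in six parallel replicates, lasted 24 hours in YPD at 37°C. Fitness relative to wild type was calculated from changes in genotype frequencies. Genotypes had to have ≥ 100 starting reads, and estimates < 0.5 were set to 0.5.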

Variant | yeast fitness
C4G U19A A21G C62A | ≤ 0.5
C4G U26G U28A | ≤ 0.5
C4G U28A C31G A57G C62U | 0.532
C4G U28G C30A A43C | ≤ 0.5
C4U A14G A45C | 0.542
C4U A15C A37G G50C C60G | ≤ 0.5
C4U A21C C30A C31G U32C C49U G52C | ≤ 0.5
C4U A36U A40C A65C | ≤ 0.5
C4U A36U C62U | ≤ 0.5
C4U A37U A45G | ≤ 0.5
C4U A40C C62U | ≤ 0.5
C4U A42U G51C C62U C66U | ≤ 0.5
C4U C5A A40C U64A | ≤ 0.5
C4U C5A C61U | 0.719
C4U C11A G12A G48A A57C A70C | ≤ 0.5
C4U C11A U28A C31U U32C G51C | ≤ 0.5
C4U C11G A21C C33A U35G A40C A65U | ≤ 0.5
C4U C11G C31G | ≤ 0.5
C4U C11G G18A G23C U47G G50A C61U | ≤ 0.5
C4U C11G G18A G23C U47G G50A G67C | ≤ 0.5
C4U C11G U19C C29U | ≤ 0.5
C4U C22A A45U C66U | ≤ 0.5
C4U C22G U28A A36U A65U | ≤ 0.5
C4U C24A A57U C60A G68C | ≤ 0.5

Variant | yeast fitness
C4U C27A A45C G50C | ≤ 0.5
C4U C27A A65C A69C | ≤ 0.5
C4U C29G C30U | ≤ 0.5
C4U C29U C31U | 0.538
C4U C29U C31U A65C | ≤ 0.5
C4U C30A U53C A70C | ≤ 0.5
C4U C33A G67C | ≤ 0.5
C4U C33G U47G A57G A69U | ≤ 0.5
C4U C49A | 0.787
C4U C60G G63A G67A | ≤ 0.5
C4U C61U A70G | 0.777
C4U G6A A57C A65C | ≤ 0.5
C4U G6A G9A U13C U28C | ≤ 0.5
C4U G6A U13C U28C | 0.616
C4U G6C A14U C24G G48C G67C | ≤ 0.5
C4U G6C C11U A14U C24G G58C | ≤ 0.5
C4U G12A A20G C22U U59A | ≤ 0.5
C4U G12A A42U U47A C61A | ≤ 0.5
C4U G12C A20G U47A C49U A57U C61A G68A | ≤ 0.5
C4U G18A G67U | ≤ 0.5
C4U G18C U47G | ≤ 0.5
C4U G18C U54G A57G C66A A69C | ≤ 0.5
C4U G25A A36C A70G | ≤ 0.5
C4U G25C C34U A65U | ≤ 0.5

Variant | yeast fitness
C4U G38C A65G | 0.621
C4U G50A G67C | 0.578
C4U U7C A57U C61U | ≤ 0.5
C4U U8G G12A C55U | ≤ 0.5
C4U U13G C29U C34U | ≤ 0.5
C4U U28C C29U G63C A65U | ≤ 0.5
C4U U28C C49G A70G | ≤ 0.5
C4U U47A G67A | 0.607
C4U U64G C66A | ≤ 0.5
C5A A14G A20U A37C C49A | ≤ 0.5
C5A A14G C22G A37U U54G | ≤ 0.5
C5A A14U U53A | ≤ 0.5
C5A A20C A37G C49G U53A C60U A69C | ≤ 0.5
C5A A20C C22A A36C A69C | ≤ 0.5
C5A A20C G68A | ≤ 0.5
C5A A20U G41A A70G | ≤ 0.5
C5A A21U G51A | ≤ 0.5
C5A A21U U32A U54C C55G | ≤ 0.5
C5A A40C A57U C62G | ≤ 0.5
C5A A40U C60U C61G | 0.525
C5A C11A U26A C30G A43C C49U | ≤ 0.5
C5A C11G C33A G38A U53A C55U | ≤ 0.5
C5A C22U A70G | ≤ 0.5
C5A C24G A69C | ≤ 0.5

Variant | yeast fitness
C5A C27G U47C | ≤ 0.5
C5A C27U G39C | ≤ 0.5
C5A C29A A45U | ≤ 0.5
C5A C30G A57G | ≤ 0.5
C5A C30U U35A A42G C61U | ≤ 0.5
C5A C31G G44C G52C | ≤ 0.5
C5A C34A A40G C66A | ≤ 0.5
C5A C34G A36G | ≤ 0.5
C5A C34U A40G C60G G63A | ≤ 0.5
C5A G10U C30U A43C A69C | ≤ 0.5
C5A G17A C30U C49U | ≤ 0.5
C5A G17C G18C G58A U59G | 0.535
C5A G23A A42C U47G | ≤ 0.5
C5A G23A C24U A36C | ≤ 0.5
C5A G39A U47A C55U G67A A69G | ≤ 0.5
C5A U7C C31A | ≤ 0.5
C5A U8C A21G U54G | ≤ 0.5
C5A U8C C27U A40G C49U C55G | ≤ 0.5
C5A U8G U28G A57C | ≤ 0.5
C5A U16C A21C C33U A40G A43U U54G C62G | ≤ 0.5
C5A U16C U59G | ≤ 0.5
C5A U19A A65C | 0.538
C5A U19A C30G C49G | ≤ 0.5
C5A U19G A43U | 0.656

Variant | yeast fitness
C5A U54C C61U C62U A69U | 0.546
C5G A14U C22G C27G C31G C61G A69U | ≤ 0.5
C5G A14U C27G C34G | ≤ 0.5
C5G A14U C33G A43U C66A | ≤ 0.5
C5G A20G A40G G44A C46G C60G C61U G63A | ≤ 0.5
C5G A20U | 0.621
C5G A21C C30G C34U G38C C49U A70C | ≤ 0.5
C5G A21G G51A | 0.617
C5G A21U G38A A45C | ≤ 0.5
C5G A57C A65C A70C | ≤ 0.5
C5G C11A A15G G18A C30G | 0.587
C5G C11A A15G G18A C30G A69C | ≤ 0.5
C5G C11G A14U A15U C60A C62G | ≤ 0.5
C5G C11G A14U A15U C61U G68C | ≤ 0.5
C5G C11G A42C C49U U64G C66U | ≤ 0.5
C5G C11U A20C U54A | ≤ 0.5
C5G C11U C31U G52A U54A A70C | ≤ 0.5
C5G C22G U54C | ≤ 0.5
C5G C22U U28G G52C G68C | ≤ 0.5
C5G C24U U26C G63A A65G | ≤ 0.5
C5G C27A A37C C55G | ≤ 0.5
C5G C29U G38C C61G | ≤ 0.5
C5G C30A C31A C49U C55G | 0.544
C5G C30A C34G | ≤ 0.5

Variant | yeast fitness
C5G C31U A36C G38A | 0.557
C5G C31U G41C A43C C60G | ≤ 0.5
C5G C33A U64A | ≤ 0.5
C5G C34G A57G A69U | ≤ 0.5
C5G C34G G68C | ≤ 0.5
C5G C46G | 0.751
C5G G6A C29U C33G G38A U59G | 0.562
C5G G9A C61U | ≤ 0.5
C5G G9A U47A G68C | ≤ 0.5
C5G G9C A43G G67U | ≤ 0.5
C5G G9C C27U C30U G52C | ≤ 0.5
C5G G9C C55A C61G | ≤ 0.5
C5G G10A C11G U16G C33G G56C | ≤ 0.5
C5G G10A C11G U16G C33G U53A U59A | ≤ 0.5
C5G G10C C29U C61U A69U | ≤ 0.5
C5G G10C U32C G52C U59A | ≤ 0.5
C5G G17A C30A C31A C49U C55G | ≤ 0.5
C5G G25A A42C G68A | ≤ 0.5
C5G G25A A65G | 0.763
C5G G56A | 0.975
C5G U7A A20C C49A | ≤ 0.5
C5G U7C A36C A57U C61A C66G | ≤ 0.5
C5G U8C A36U G41A A65U | ≤ 0.5
C5G U13A C30U C62U | ≤ 0.5

Variant | yeast fitness
C5G U13C C62U | 0.602
C5G U13G C29A | ≤ 0.5
C5G U16A C24G C49G | ≤ 0.5
C5G U19C A20G A40G G44A C46G | ≤ 0.5
C5G U19C A21C G39A | ≤ 0.5
C5G U19C C24U | 0.684
C5G U26C A36G C55G U59A U64G | ≤ 0.5
C5G U53G G67A | ≤ 0.5
C5U A14C A21C A70G | ≤ 0.5
C5U A14C C31A G52C | ≤ 0.5
C5U A14C G38C A42C U64A G67A | ≤ 0.5
C5U A14G A21U A36U G48C C55U | 0.627
C5U A14G A65G | 0.69
C5U A14G C30G C31G A65U C66G | ≤ 0.5
C5U A14G U53A | ≤ 0.5
C5U A15G U19A A21U C34U | ≤ 0.5
C5U A15U G17C | ≤ 0.5
C5U A20G C31U A69C | ≤ 0.5
C5U A21C C30G U35A G38C | ≤ 0.5
C5U A21G A42U G58A | 1.02
C5U A21U C30G G56A C66A | ≤ 0.5
C5U A37C A42U | ≤ 0.5
C5U A37G A43C U59C | ≤ 0.5

— the RNAGym collection of RNA variant scans (doi:10.1126/science.aae0568)
